Some of the results follow. Most entries show no effect beyond the scatter of the controls.
Compound: Cc1nc(Nc2ncc(C(=O)Nc3c(C)cccc3Cl)s2)cc(N2CCN(CCO)CC2)n1 [dasatinib]
Experiment: log2 fold change of tryptic peptide abundance, ligand vs vehicle (limited proteolysis) (log2 ratio); higher = more trypsin-susceptible (destabilized)
Conditions: ligand concentration: 5 uM; sample: K562 cleared lysate

By UniProt entry, the sequences of proteins in these tests, tags left out. Where a name states a change or a piece, a line headed by the entry shows the natural chain unless it says otherwise.
UniProt Q9UI43: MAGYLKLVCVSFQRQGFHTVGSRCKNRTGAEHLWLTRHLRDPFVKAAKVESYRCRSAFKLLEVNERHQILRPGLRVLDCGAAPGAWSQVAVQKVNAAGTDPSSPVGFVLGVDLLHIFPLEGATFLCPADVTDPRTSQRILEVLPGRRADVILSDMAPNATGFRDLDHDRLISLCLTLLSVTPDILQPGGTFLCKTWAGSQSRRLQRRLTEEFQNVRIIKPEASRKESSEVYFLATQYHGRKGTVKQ
UniProt Q9UQR1: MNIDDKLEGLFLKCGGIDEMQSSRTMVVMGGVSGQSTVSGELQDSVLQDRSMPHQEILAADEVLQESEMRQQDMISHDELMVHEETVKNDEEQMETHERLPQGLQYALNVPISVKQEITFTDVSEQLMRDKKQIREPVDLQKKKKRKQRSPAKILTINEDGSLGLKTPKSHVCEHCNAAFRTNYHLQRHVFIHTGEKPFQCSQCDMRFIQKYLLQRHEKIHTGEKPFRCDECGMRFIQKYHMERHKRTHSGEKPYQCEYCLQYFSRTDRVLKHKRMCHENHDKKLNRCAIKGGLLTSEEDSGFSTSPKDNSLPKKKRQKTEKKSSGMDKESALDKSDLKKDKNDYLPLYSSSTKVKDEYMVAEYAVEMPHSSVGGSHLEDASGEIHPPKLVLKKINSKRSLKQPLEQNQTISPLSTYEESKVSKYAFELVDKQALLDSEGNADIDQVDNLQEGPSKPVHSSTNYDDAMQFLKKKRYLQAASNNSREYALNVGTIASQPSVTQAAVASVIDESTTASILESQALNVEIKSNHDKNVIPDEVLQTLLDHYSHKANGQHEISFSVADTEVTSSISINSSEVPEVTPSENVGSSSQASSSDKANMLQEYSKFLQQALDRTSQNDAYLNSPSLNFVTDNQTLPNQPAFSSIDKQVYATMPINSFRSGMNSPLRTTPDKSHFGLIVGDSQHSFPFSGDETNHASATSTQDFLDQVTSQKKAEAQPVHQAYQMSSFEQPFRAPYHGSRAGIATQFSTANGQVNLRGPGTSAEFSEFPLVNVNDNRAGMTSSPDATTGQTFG
UniProt Q9UJU6: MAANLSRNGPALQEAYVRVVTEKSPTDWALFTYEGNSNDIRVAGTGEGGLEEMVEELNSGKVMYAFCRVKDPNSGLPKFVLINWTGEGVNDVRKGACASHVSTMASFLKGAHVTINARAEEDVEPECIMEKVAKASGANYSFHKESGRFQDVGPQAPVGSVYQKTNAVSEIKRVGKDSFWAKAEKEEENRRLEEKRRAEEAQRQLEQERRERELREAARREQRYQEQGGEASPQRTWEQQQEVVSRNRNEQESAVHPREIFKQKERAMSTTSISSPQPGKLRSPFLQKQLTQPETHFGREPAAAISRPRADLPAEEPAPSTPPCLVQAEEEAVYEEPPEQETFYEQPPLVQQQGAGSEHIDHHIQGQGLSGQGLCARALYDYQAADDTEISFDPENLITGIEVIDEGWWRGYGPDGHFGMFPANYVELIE
UniProt Q9UL16, whole entry: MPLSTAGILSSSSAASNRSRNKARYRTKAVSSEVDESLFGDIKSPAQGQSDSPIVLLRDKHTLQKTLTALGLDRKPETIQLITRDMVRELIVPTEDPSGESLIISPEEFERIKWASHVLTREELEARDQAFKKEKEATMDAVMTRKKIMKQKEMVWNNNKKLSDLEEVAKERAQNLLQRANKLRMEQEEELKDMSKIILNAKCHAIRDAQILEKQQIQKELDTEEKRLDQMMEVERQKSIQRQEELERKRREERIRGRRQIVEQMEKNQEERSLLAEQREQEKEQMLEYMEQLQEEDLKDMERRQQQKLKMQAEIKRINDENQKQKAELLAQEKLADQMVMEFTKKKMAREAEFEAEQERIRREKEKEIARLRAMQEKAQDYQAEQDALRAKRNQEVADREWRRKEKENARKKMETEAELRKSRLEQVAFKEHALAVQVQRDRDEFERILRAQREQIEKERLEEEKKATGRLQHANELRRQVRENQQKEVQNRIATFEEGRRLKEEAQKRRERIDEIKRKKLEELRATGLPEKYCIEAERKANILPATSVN
UniProt Q9UJA3: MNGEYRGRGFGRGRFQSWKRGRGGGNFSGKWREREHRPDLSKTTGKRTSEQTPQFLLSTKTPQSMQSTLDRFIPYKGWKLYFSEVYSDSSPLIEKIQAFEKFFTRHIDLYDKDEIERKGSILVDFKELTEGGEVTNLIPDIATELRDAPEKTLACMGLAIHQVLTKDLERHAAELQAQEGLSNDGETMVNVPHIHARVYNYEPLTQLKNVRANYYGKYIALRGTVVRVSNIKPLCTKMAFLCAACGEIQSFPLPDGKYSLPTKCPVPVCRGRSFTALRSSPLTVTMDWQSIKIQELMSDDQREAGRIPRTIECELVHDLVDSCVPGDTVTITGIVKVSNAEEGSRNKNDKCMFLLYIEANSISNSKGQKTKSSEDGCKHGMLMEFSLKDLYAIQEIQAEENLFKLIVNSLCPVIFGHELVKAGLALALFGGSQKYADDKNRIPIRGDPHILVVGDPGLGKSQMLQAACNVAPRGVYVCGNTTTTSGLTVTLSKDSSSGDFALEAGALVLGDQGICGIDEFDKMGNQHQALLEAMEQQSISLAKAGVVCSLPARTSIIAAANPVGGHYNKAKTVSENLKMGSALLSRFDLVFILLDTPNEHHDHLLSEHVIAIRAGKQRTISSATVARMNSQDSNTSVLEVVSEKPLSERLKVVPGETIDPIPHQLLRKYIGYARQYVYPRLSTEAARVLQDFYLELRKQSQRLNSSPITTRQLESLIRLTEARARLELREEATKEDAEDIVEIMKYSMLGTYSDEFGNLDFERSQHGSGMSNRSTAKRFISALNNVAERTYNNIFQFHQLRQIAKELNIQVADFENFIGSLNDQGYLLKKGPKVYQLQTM
UniProt Q9UNM6: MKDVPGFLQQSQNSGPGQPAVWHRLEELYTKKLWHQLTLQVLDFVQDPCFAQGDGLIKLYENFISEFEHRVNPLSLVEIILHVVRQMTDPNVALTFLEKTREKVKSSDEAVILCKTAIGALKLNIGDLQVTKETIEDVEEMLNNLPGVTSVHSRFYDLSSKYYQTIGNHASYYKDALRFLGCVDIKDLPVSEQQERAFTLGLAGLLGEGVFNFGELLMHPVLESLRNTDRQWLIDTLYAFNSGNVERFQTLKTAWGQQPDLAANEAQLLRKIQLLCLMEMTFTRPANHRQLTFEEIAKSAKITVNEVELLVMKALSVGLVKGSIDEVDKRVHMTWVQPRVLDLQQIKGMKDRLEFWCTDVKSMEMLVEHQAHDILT
UniProt Q9UKA9: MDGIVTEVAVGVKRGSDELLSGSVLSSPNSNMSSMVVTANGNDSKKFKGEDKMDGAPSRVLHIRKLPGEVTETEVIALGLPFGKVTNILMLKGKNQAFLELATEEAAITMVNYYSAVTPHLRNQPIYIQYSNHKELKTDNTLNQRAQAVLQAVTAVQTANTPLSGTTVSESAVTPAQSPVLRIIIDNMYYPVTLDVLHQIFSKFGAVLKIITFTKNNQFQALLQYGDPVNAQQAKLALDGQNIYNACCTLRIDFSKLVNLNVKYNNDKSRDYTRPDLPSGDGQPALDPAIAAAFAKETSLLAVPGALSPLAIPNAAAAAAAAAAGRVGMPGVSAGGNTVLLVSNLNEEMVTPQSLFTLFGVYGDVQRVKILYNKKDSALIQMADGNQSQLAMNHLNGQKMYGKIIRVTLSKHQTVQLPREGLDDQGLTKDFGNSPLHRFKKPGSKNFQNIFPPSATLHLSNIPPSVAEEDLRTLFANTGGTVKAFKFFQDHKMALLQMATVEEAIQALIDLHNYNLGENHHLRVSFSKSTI
UniProt Q9UPN9: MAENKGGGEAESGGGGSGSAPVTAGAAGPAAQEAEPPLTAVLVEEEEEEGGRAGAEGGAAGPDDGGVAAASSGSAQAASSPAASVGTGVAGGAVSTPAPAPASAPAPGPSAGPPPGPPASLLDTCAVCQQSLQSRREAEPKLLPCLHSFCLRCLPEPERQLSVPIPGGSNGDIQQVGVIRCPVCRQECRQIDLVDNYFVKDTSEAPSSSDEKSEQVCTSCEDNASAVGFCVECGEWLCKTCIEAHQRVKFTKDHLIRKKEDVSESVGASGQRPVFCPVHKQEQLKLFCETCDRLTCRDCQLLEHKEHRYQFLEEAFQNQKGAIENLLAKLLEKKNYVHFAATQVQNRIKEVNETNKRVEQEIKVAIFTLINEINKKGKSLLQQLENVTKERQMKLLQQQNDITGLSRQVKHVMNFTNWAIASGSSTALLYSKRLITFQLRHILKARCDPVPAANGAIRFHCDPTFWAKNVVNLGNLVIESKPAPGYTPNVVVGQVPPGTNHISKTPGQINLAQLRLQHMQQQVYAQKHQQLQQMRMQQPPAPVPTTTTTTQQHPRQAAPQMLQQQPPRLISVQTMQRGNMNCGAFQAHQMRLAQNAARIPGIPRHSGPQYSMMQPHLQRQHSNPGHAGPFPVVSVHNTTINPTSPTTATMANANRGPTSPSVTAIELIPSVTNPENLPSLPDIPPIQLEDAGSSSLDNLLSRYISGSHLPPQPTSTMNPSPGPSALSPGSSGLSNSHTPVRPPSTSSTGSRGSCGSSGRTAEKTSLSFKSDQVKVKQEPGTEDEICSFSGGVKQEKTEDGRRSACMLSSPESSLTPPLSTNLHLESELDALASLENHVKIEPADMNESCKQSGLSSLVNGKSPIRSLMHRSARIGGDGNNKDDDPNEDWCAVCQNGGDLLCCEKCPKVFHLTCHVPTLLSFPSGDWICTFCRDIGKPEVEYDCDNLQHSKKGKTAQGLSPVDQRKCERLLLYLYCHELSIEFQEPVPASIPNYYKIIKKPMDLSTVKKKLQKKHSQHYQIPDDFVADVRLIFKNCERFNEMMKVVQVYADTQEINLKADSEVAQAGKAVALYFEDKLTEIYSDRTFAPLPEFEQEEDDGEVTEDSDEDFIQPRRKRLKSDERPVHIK
UniProt Q9ULH1: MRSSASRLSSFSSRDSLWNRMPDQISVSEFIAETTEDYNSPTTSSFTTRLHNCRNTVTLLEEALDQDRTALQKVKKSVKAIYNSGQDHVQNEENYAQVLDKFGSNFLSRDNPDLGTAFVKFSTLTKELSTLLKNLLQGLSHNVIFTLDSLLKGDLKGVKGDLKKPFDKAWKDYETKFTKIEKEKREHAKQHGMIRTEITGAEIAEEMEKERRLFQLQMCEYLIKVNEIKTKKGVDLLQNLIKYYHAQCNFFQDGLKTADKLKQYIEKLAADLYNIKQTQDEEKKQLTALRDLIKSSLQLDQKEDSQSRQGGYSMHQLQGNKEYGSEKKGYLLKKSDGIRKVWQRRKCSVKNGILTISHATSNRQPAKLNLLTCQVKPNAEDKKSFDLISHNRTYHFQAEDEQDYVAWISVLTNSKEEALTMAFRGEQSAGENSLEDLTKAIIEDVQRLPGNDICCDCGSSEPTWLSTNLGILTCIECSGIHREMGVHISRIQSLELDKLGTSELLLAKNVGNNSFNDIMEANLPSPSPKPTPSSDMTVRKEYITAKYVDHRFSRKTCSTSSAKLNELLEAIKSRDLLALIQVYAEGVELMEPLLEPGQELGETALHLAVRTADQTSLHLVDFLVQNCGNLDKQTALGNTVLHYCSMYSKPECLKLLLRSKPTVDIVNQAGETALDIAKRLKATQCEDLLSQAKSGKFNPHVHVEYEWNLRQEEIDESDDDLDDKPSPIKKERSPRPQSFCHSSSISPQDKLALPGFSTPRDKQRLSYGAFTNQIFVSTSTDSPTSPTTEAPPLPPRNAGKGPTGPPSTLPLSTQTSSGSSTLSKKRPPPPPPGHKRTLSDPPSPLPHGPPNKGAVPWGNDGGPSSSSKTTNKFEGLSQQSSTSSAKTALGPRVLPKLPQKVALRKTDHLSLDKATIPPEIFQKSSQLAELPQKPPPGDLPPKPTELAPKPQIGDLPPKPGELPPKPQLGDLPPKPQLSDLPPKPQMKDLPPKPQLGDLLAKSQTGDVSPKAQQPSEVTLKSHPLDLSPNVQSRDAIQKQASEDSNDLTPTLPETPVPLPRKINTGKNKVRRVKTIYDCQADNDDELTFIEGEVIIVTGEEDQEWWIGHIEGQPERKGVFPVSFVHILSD
UniProt Q9UHW5, whole entry: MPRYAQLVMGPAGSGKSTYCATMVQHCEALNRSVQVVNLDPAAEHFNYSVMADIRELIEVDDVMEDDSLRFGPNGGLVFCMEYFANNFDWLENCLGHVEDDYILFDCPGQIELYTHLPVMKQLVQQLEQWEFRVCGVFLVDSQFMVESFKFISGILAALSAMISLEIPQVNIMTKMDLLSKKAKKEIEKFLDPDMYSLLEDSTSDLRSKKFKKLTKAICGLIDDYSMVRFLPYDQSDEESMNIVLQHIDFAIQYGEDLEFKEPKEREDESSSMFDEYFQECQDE
UniProt Q9UHF1: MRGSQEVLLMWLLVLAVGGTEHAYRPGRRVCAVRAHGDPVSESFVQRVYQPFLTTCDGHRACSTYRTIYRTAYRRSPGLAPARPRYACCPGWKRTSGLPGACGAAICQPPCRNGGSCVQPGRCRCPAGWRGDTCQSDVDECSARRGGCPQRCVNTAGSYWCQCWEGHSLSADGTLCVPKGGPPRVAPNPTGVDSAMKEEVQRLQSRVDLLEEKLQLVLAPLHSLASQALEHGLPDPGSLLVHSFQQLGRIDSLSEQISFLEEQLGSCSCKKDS

Target | log2 fold change
MRM2 (peptide sequence: KESSEVYFLATQYHGRK, peptide start residue: 225) (UniProt Q9UI43) | -0.192
HDAC5 (peptide sequence: QHEVQLQK, peptide start residue: 108) (UniProt Q9UQL6) | 0.301
SLC12A4 (peptide sequence: TLMMEQR, peptide start residue: 926) (UniProt Q9UP95) | -0.0745
COPS3 (peptide sequence: YTSQIVGR, peptide start residue: 244) (UniProt Q9UNS2) | -0.197
ZNF148 (peptide sequence: KAEAQPVHQAYQMSSFEQPFR, peptide start residue: 714) (UniProt Q9UQR1) | -0.133
SLC39A10 (peptide sequence: NNAIISLR, peptide start residue: 318) (UniProt Q9ULF5) | 0.371
DBNL (peptide sequence: NGPALQEAYVR, peptide start residue: 8) (UniProt Q9UJU6) | 0.114
UniProt Q9UL16 (peptide sequence: LQHANELR, peptide start residue: 472) | -0.134
DDX20 (peptide sequence: EIAVQIHSVITAIGIK, peptide start residue: 141) (UniProt Q9UHI6) | 0.187
BAIAP2L1 (peptide sequence: SVSVATGLNMMK, peptide start residue: 329) (UniProt Q9UHR4) | -0.204
NRBP1 (peptide sequence: REEVNQR, peptide start residue: 68) (UniProt Q9UHY1) | 0.266
AKAP11 (peptide sequence: SQCDAASQTVTGHHLETHDLK, peptide start residue: 214) (UniProt Q9UKA4) | -0.606
INO80 (peptide sequence: EVVSLLLDDEELEKK, peptide start residue: 1263) (UniProt Q9ULG1) | -0.584
CEP164 (peptide sequence: EQLEGERK, peptide start residue: 753) (UniProt Q9UPV0) | -0.529
SAMD4A (peptide sequence: TSTSFGGQNR, peptide start residue: 154) (UniProt Q9UPU9) | 0.37
XPO7 (peptide sequence: VENYPEVIR, peptide start residue: 349) (UniProt Q9UIA9) | 0.308
ZC3H4 (peptide sequence: AVNIPLDPLPGHPLRDPR, peptide start residue: 936) (UniProt Q9UPT8) | -0.132
UniProt Q9Y224 (peptide sequence: LEYGDNAEK, peptide start residue: 90) | -0.335
MACF1 (peptide sequence: SLGQVSLTHPYSECDFK, peptide start residue: 2882) (UniProt Q9UPN3) | -0.235
UniProt Q9UJA3 (peptide sequence: AGVVCSLPAR, peptide start residue: 544) | 0.187
PSMD13 (peptide sequence: FLGCVDIK, peptide start residue: 179) (UniProt Q9UNM6) | -0.154
PTBP2 (peptide sequence: DFGNSPLHR, peptide start residue: 430) (UniProt Q9UKA9) | 0.131
SUFU (peptide sequence: GLEINSKPVLPPINPQR, peptide start residue: 315) (UniProt Q9UMX1) | 0.224
TRIM33 (peptide sequence: KPMDLSTVK, peptide start residue: 999) (UniProt Q9UPN9) | -0.411
ASAP1 (peptide sequence: SFDLISHNR, peptide start residue: 384) (UniProt Q9ULH1) | -0.193
GPN3 (peptide sequence: STYCATMVQHCEALNR, peptide start residue: 17) (UniProt Q9UHW5) | -0.15
TTC7A (peptide sequence: IKDSMPLLEKNEPK, peptide start residue: 85) (UniProt Q9ULT0) | 0.317
EGFL7 (peptide sequence: VAPNPTGVDSAMKEEVQR, peptide start residue: 185) (UniProt Q9UHF1) | 0.241

Looked up one by one from the list above:
Target | log2 fold change
NRBP1 (peptide sequence: REEVNQR, peptide start residue: 68) (UniProt Q9UHY1) | 0.266
BAIAP2L1 (peptide sequence: SVSVATGLNMMK, peptide start residue: 329) (UniProt Q9UHR4) | -0.204
